Assay: peptide synthesis
Details: whole synthesis

Substance: DOTA-(Lys-Dabcyl^6,Phe^7)-ARA-290
- final HPLC purity: >97%

Reference: paper PMC8917853 (Iranian Journal of Basic Medical Sciences, 2021)
